Sequences of proteins named here, by UniProt entry; tags and fusion partners are left off. A change or cut given only in a name is not applied to a line headed by its entry.
UniProt P18850: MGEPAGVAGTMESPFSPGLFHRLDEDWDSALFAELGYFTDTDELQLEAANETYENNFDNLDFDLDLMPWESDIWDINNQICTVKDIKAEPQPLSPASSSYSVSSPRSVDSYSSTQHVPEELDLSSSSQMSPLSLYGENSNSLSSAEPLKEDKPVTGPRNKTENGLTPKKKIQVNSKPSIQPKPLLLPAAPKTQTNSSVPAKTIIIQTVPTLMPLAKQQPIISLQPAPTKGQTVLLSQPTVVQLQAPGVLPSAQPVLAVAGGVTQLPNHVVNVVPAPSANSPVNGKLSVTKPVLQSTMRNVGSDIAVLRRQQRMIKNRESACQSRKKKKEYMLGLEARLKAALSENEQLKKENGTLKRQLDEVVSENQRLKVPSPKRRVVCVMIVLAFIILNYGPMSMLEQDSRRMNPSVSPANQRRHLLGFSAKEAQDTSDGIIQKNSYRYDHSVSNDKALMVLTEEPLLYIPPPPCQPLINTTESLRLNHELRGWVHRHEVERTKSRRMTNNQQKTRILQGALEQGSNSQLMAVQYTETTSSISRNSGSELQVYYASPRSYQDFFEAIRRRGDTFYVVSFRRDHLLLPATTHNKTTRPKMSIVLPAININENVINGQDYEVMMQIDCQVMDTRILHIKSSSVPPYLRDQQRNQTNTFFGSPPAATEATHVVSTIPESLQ
UniProt Q13547: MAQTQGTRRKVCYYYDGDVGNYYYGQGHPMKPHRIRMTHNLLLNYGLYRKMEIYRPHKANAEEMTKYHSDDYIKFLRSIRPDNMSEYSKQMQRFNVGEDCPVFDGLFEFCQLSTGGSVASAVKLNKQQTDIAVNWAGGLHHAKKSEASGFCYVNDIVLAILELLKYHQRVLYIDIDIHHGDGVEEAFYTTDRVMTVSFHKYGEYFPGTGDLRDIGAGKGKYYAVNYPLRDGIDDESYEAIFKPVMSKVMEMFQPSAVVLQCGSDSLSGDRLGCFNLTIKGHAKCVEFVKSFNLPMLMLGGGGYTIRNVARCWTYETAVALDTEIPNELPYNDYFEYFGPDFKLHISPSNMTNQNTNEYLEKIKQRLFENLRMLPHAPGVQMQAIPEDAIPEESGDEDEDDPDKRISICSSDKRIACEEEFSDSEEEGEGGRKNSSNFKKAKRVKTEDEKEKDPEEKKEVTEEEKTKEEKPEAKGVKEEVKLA

According to article doi:10.1101/2021.02.24.432555:

B1: ING2 (protein, UniProt Q9H160 1-280)
chain: MLGQQQQQLYSSAALLTGERSRLLTCYVQDYLECVESLPHDMQRNVSVLRELDNKYQETLKEIDDVYEKYKKEDDLNQKKRLQQLLQRALINSQELGDEKIQIVTQMLELVENRARQMELHSQCFQDPAESERASDKAKMDSSQPERSSRRPRRQRTSESRDLCHMANGIEDCDDQPPKEKKSKSAKKKKRSKAKQEREASPVEFAIDPNEPTYCLCNQVSYGEMIGCDNEQCPIEWFHFSCVSLTYKPKGKWYCPKCRGDNEKTMDKSTEKTKKDRRSR

What follows are molecules tested against ATF6f (human (endogenous in HeLa)) (UniProt P18850) (assay: co-IP).

Row | binding | Molecule
1 | binds | HDAC1 (from UniProt Q13547 1-482)
2 | binds | p97/VCP (from UniProt P55072 1-806)
3 | no binding | B1

No constants are given. Whether binding was seen depends on the method and setting. In cells and extracts the contact can be indirect. Binding calls can cover weak binding; strength is not graded here.
